Results deposited as PubChem BioAssay AID1259308 (NCATS, 2017)
Shown is a random part of about 59,000 reagents. Of all reagents, about 1,510 (2.6%) were called active. 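Calls use total luciferase alone and ignore viability, so some active siRNAs may act by altering cell number.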

Test: 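Knock-downs that increase output of a recombinant reporter protein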 (primary screen)
Cells: human HEK293 embryonic kidney cells stably expressing firefly luciferase (HEK-CMV-Luc2-Hygro)
Reagents: single siRNA against human genes, 0.8 pmol siRNA per well
Time to read-out: 72 h
Measurement: 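Luciferase light (ONE-Glo) measured on one replicate plate set and viability (CellTiter-Glo) on the other, scaled to a negative control siRNA, with robust z-scores and luciferase per cell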
Reading the numbers: total luciferase, z-score and total luciferase, % of control: higher = more reporter protein produced; luciferase per cell, z-score: higher = more reporter output per viable cell; viable cells, % of control: higher = more viable cells
Active means: 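An siRNA counts as active if its total luciferase robust z-score exceeds 3; genes with two or more such siRNAs out of three were retested with fresh siRNAs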
Meaning of the calls: active = raised luciferase; inactive = no rise

gene	PubChem SID	total luciferase, z-score	total luciferase, % of control	luciferase per cell, z-score	viable cells, % of control	Call
ZNF273	SID160729232	1.77	117	3.15	57.2	inactive
ZNF273	SID160729233	2.88	139	2.72	76	inactive
ZNF273	SID160729234	-0.137	79.2	-0.528	102	inactive
CCNO	SID160728134	-1.49	52.2	-1.7	91.3	inactive
CCNO	SID160728135	-0.162	78.7	0.609	74.9	inactive
CCNO	SID160730427	-0.679	68.4	-1.28	107	inactive
RPTN	SID160756512	1.54	113	0.783	102	inactive
RPTN	SID160756513	1.75	117	1.64	84.7	inactive
RPTN	SID160756514	4.7	175	3.47	78.6	active
SFTPB	SID160716632	1.71	116	0.869	103	inactive
SFTPB	SID160716633	0.32	88.2	0.645	83.2	inactive
SFTPB	SID160733855	1.05	103	0.356	105	inactive
ATP1B4	SID160736295	1.77	117	1.25	94.2	inactive
ATP1B4	SID160736296	0.476	91.4	0.42	91.4	inactive
ATP1B4	SID160736298	-1.42	53.6	-1.31	84.5	inactive
DNAJC19P9	SID160769262	-0.57	70.6	0.0123	78.6	inactive
DNAJC19P9	SID160769263	-0.928	63.4	-0.524	81.4	inactive
DNAJC19P9	SID160769264	-2.04	41.2	-1.4	66.6	inactive
SLC22A17	SID160740573	-0.67	68.6	-0.233	81.5	inactive
SLC22A17	SID160740574	-0.924	63.5	-0.522	81.4	inactive
SLC22A17	SID160740575	-0.981	62.4	-0.948	89.5	inactive
BARHL2	SID160764718	0.0989	83.9	-0.266	101	inactive
BARHL2	SID160764719	-0.481	72.3	-0.345	88.5	inactive
BARHL2	SID160764720	-2.95	23.2	-2.25	46.8	inactive
MATR3	SID160723071	-1.01	61.8	-0.745	84	inactive
MATR3	SID160723072	-0.27	76.5	-0.249	91.3	inactive
MATR3	SID160723073	0.107	84	1.04	71.4	inactive
MRFAP1	SID160754523	1.19	106	2.51	60.9	inactive
MRFAP1	SID160754524	0.466	91.2	-0.0677	104	inactive
MRFAP1	SID160754525	0.884	99.5	1.13	82.5	inactive
RAB44	SID160767219	-1.47	52.6	-0.118	60.7	inactive
RAB44	SID160767220	-1.22	57.7	-0.469	73	inactive
RAB44	SID160767221	0.0073	82	-0.0393	92.6	inactive
NME8	SID160740586	0.0843	83.6	-0.355	103	inactive
NME8	SID160740588	0.329	88.4	0.885	78.3	inactive
NME8	SID160740589	0.0274	82.4	-0.312	100	inactive
ZFPM1	SID160759889	2.58	133	2.88	69.8	inactive
ZFPM1	SID160759890	1.28	107	0.519	105	inactive
ZFPM1	SID160759891	-0.583	70.3	0.359	71.5	inactive
CA14	SID160736718	-0.0274	81.3	-0.459	103	inactive
CA14	SID160736719	2.32	128	2.76	69.2	inactive
CA14	SID160736721	-0.331	75.3	-0.317	91.5	inactive
CHRNA4	SID160743249	0.762	97	0.925	85	inactive
CHRNA4	SID160743259	0.184	85.6	0.576	82.2	inactive
CHRNA4	SID160743270	0.202	85.9	-0.526	110	inactive
SLC9A6	SID160728529	-0.712	67.7	-0.142	78.6	inactive
SLC9A6	SID160728530	-0.465	72.6	-1	106	inactive
SLC9A6	SID160728531	0.0609	83.1	0.0843	90.8	inactive
BMS1	SID160723098	-1.79	46.3	-1.84	84	inactive
BMS1	SID160723099	-1.58	50.4	-1.68	87.6	inactive
BMS1	SID160723100	-0.814	65.7	-0.769	89.9	inactive
ZMYM3	SID160721710	2.72	136	2.16	86.1	inactive
ZMYM3	SID160721711	1.74	117	1.21	94.6	inactive
ZMYM3	SID160721712	0.452	90.9	0.165	97.2	inactive
CXCL6	SID160716492	1.25	107	0.499	105	inactive
CXCL6	SID160716493	0.643	94.7	-0.184	111	inactive
CXCL6	SID160716494	0.623	94.3	0.114	102	inactive

Only “luciferase per cell, z-score” (4 entries from above):
SLC9A6 [SID160728529]	-0.142
SLC9A6 [SID160728530]	-1
SLC9A6 [SID160728531]	0.0843
BMS1 [SID160723098]	-1.84
